The whole screen tested about 400,000 compounds, of which about 5,500 (1.4%) were called active. Inconclusive means that the source gave no clear call. Such entries were picked first, then a sample of the others. Calls come from the whole dose curve; as a rule, active = well fitted cell-killing curve with a large enough effect; inconclusive = small, poorly fitted or top-dose-only effect, or effect the other way; inactive = flat fitted curve, though single readings scatter. Potencies of inconclusive entries are doubtful fits and often do not repeat. A structure can be active in one record and inactive in another.
Assay: qHTS assay for MDR1-selective chemotherapeutics: Primary screen using the parental adenocarcinoma cell KB-3-1; note: nearly all actives have a fitted effect of over 60% in size
Details: KB-3-1 viability, CellTiter-Glo ATP luminescence, 72 h; activity change, negative = cytotoxic: at 46.1 µM (top of the series)
Outline: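 Cytotoxicity in the drug-sensitive parental line KB-3-1 was scored as loss of CellTiter-Glo luminescence following 72 h incubation with compound. Values come from curve fitting of normalized concentration-response data.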
With `CCOC(=O)C1(C)CCN1C(=O)Cc1ccc(OC)cc1` (centres undefined) the “activity change, negative = cytotoxic” value was inactive: 0%. For `COc1ccc(C2=NO[C@@H]3C(=O)N(Cc4ccccc4)C(=O)[C@H]23)cc1OC`, the Potency was inconclusive: 29.1 µM [cytotoxic, single point]. In the case of `O=c1[nH]c(SCc2ccccc2)nc2ccsc12`, the “activity change, negative = cytotoxic” value is reported as inactive: -0.746%. In the case of `CCOc1ccccc1OCCCC(=O)N(CC)CC(=O)Nc1ccc(NC(C)=O)cc1`, the “activity change, negative = cytotoxic” value is reported as inactive: -1.66%. In the case of `COc1ccc(/C=N/Nc2nc(C)cc(-c3ccccc3)n2)c(OC)c1`, the “activity change, negative = cytotoxic” value is reported as inactive: -5.97%. With `c1cc2c(cc1-c1csc(NNC3=NCCCCC3)n1)OCCO2` the “activity change, negative = cytotoxic” value was inactive: -19.8%. In the case of `O=C(Nc1nc2c(Cl)cccc2s1)c1ccc([N+](=O)[O-])o1`, the Potency is reported as inconclusive: 29.1 µM [cytotoxic, single point]. For `CCCCCCSc1cccc(-c2nc3cc(C)ccn3c2NCc2ccccc2)c1`, the Potency was inconclusive: 29.1 µM [cytotoxic, single point]. In the case of `O=C(c1cc(COc2ccc(F)cc2Cl)on1)N(CCO)Cc1cccs1`, the Potency is reported as inconclusive: 9.2 µM [rising, partial curve]. With `O=C(O)c1cccc(NC(=S)NC(NC(=O)c2ccco2)C(Cl)(Cl)Cl)c1` (centres undefined) the “activity change, negative = cytotoxic” value was inactive: -9.08%. In the case of `O=C(NCc1ccccc1)C(c1ccc(C(F)(F)F)cc1)n1c(=O)c(-c2cc3ccccc3[nH]2)nc2ccccc21` (centres undefined), the Potency is reported as inconclusive: 29.1 µM [cytotoxic, single point]. In the case of `CS(=O)(=O)c1ccc2nc(NC(=O)c3ccccc3Cl)sc2c1`, the “activity change, negative = cytotoxic” value is reported as inactive: -16.1%. With `CC(=O)NC(c1ccco1)c1cc(F)c2cccnc2c1O` (centres undefined) the Potency was inconclusive: 11.6 µM [cytotoxic, partial curve, poor fit]. For `Cc1cc(C)cc(NC(=S)NCc2ccc3[nH]c4c(c3c2)CCCC4)c1`, the Potency was inconclusive: 20.6 µM [cytotoxic, single point]. With `Cc1ccnc2nc(C(=O)Nc3nnc(CC(C)C)s3)nn12` the Potency was inconclusive: 32.6 µM [rising, single point]. In the case of `CC1=NN(c2ccc(S(=O)(=O)O)cc2C)C(=O)C1`, the “activity change, negative = cytotoxic” value is reported as inactive: -4.4%. For `CC(C)C[C@@H](CN1CCC[C@H]1CN1C(=O)C(=O)NC[C@@H]1Cc1ccc(O)cc1)N1C[C@H](Cc2ccccc2)N(CC2CCCCC2)C(=O)C1=O`, the Potency was inconclusive: 29.1 µM [cytotoxic, single point]. With `CCc1ccccc1NC(=O)Cn1nnc(C(=O)NCc2ccco2)c1N` the Potency was active: 8.2 µM. With `COc1cccc(NC(=S)NC(=O)/C=C/c2ccco2)c1` the Potency was inconclusive: 29.1 µM [cytotoxic, single point]. For `COc1ccc(NC(=O)CCCN2C(=O)/C(=C\c3ccco3)SC2=S)cc1`, the “activity change, negative = cytotoxic” value was inactive: -22.8%. For `CN(CC(=O)Nc1cccc(F)c1)C(=O)c1cn(-c2ccccc2)nc1-c1cccs1`, the Potency was inconclusive: 20.6 µM [rising, single point]. In the case of `O=C1OC(c2ccc3ccccc3c2O)(c2ccc3ccccc3c2O)c2ccccc21`, the Potency is reported as inconclusive: 29.1 µM [cytotoxic, single point]. With `COc1ccc(C(=O)c2c(C(F)(F)F)oc3c2C(=O)c2ccccc2C3=O)cc1` the Potency was inconclusive: 3.66 µM [cytotoxic, full curve, poor fit]. For `Fc1ccc2[nH]c3c(N4CCc5ccccc5C4)ncnc3c2c1`, the Potency was inconclusive: 0.461 µM [cytotoxic, full curve, poor fit]. With `COc1ccc(S(=O)(=O)N(C)CC(=O)NC2CC2)cc1` the “activity change, negative = cytotoxic” value was inactive: -3.89%. In the case of `O=C(O)CC1S/C(=N/N=C/C2CC=CCC2)NC1=O` (centres undefined), the Potency is reported as inconclusive: 16.4 µM [cytotoxic, partial curve, poor fit]. In the case of `COc1cc(/C=C/C(=O)/C=C(O)/C=C/c2ccc(O)c(OC)c2)ccc1O`, the Potency is reported as inconclusive: 20.6 µM [cytotoxic, single point]. For `Cc1c(C(=O)N2CCC(C)CC2)oc2ccc(S(=O)(=O)N3CCC4(CC3)OCCO4)cc12`, the “activity change, negative = cytotoxic” value was inactive: -12.2%. With `COc1ccc(N(Cc2cc(=O)[nH]c3ccccc23)C(=O)CCl)cc1` the Potency was inconclusive: 29.1 µM [cytotoxic, single point]. For `Cc1cc(-c2n[nH]c(=S)n2/N=C/c2ccc(Cl)c([N+](=O)[O-])c2)n[nH]1`, the Potency was inconclusive: 16.4 µM [cytotoxic, single point]. With `O=C(C[C@H]1C(=O)N(Cc2cccnc2)C[C@@H]1Cc1ccccc1)Nc1ccc(Br)cc1` the Potency was inconclusive: 13 µM [cytotoxic, partial curve, poor fit]. For `CCOC(=S)SCC(=O)Nc1nc(C)c(C)s1`, the Potency was inconclusive: 32.6 µM [cytotoxic, single point]. In the case of `COc1cccc(C(=O)Nc2nc(-c3nnn(-c4cc(C)ccc4C)c3C)ns2)c1`, the Potency is reported as inconclusive: 18.4 µM [cytotoxic, single point]. In the case of `CC(C)C[C@H]1CN(CCCC[C@@H]2CNC(=O)C(=O)N2Cc2ccccc2)C(=O)C(=O)N1CCc1ccc(O)cc1`, the “activity change, negative = cytotoxic” value is reported as inactive: 10.1%. With `COC(=O)c1c(NC(=O)C(C)C)sc2c1C(C(=O)OC)CC2` (centres undefined) the Potency was inconclusive: 23.1 µM [cytotoxic, single point]. In the case of `COc1ccc(C(=O)Nc2sc3c(c2C#N)CCN(C(C)=O)C3)cc1`, the Potency is reported as active: 8.2 µM. For `CCn1c(NCc2ccccc2NS(=O)(=O)c2ccc(C)cc2)nc2ccccc21`, the Potency was inconclusive: 25.9 µM [cytotoxic, single point]. In the case of `O=C(NCc1ccc(Cl)cc1)c1cc(=O)[nH]c2ccccc12`, the activity change, negative = cytotoxic is reported as inconclusive: 0%. For `O=C(CCNC(=O)c1ccc(Br)cc1)NNC(=O)c1ccccc1`, the Potency was inconclusive: 18.4 µM [rising, single point]. For `O=C(C[N+]1(CC#Cc2ccccc2)CCOCC1)c1ccccc1`, the “activity change, negative = cytotoxic” value was inactive: -10.9%. With `O=C(CNS(=O)(=O)c1ccc(Br)s1)N1CCN(c2ccc(F)cc2)CC1` the Potency was active: 23.1 µM. In the case of `COc1cccc(/C=C(\C)C(=O)c2c(C)cc(C)[nH]c2=O)c1OC`, the “activity change, negative = cytotoxic” value is reported as inactive: 2.07%. In the case of `NC(=O)c1ccc(NC(=O)CSC(=O)c2ccccc2)cc1`, the Potency is reported as inconclusive: 29.1 µM [cytotoxic, single point]. With `CCCCN1C(=O)C(CC(=O)NCCc2ccccn2)CC(C(=O)N(CC)CC)=C1C` (centres undefined) the Potency was inconclusive: 29.1 µM [cytotoxic, single point].

From PubChem BioAssay AID1347075 (National Center for Advancing Translational Sciences (NCATS), 2019)
% is set by controls: 0 for no effect and ±100 for the full control effect; potency is the fitted concentration of half-maximal effect.
